Test system: Candida albicans
Experiment: Antifungal activity against Candida albicans ATCC 10231 at 100 ug after 72 hrs by disk diffusion method
Assay type: functional, organism-based

Sequence: NYSTATIN
- inhibition zone (IZ): 20 mm
